Laboratory results: paper PMC11093223, “Cargo selective vesicle tethering: The structural basis for binding of specific cargo proteins by the Golgi tether component TBC1D23” (Science Advances, 2024)

Assays:
[1] = target: T1, GST-TBC1D23 (514 to 684) (mouse) (UniProt Q8K0F1); assay: affinity purification with mass spectrometry; GST-TBC1D23 (1 to 513) or (514 to 684) on glutathione-Sepharose beads, 2 h with precleared 293T cell lysate (25 mM tris-HCl pH 7.4, 150 mM NaCl, 1 mM EDTA, 1% Triton X-100), elution with 1.5 M NaCl, MS; only the target purified
T1 sequence: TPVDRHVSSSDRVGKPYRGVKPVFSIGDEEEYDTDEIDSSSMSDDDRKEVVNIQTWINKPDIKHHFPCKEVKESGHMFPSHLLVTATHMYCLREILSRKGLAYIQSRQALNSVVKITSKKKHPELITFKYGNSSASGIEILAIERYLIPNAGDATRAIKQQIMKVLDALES

[2] = target: T2, GST-TBC1D23 (1 to 513) (mouse) (UniProt Q8K0F1); assay: as above
T2 sequence: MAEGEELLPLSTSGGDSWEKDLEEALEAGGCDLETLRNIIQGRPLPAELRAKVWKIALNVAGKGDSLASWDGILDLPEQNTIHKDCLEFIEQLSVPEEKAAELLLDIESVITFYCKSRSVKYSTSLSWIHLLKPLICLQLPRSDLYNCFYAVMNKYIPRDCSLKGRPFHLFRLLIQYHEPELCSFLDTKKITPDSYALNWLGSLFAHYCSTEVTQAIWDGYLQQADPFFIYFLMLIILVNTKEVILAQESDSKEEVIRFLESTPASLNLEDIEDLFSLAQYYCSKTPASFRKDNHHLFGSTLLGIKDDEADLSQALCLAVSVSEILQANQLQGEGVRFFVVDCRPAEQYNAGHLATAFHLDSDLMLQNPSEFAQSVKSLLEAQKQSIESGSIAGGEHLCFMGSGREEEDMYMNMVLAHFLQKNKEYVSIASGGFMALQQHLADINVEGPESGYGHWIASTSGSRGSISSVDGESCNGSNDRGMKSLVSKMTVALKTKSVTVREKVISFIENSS

[3] = target: GST-TBC1D23 (559 to 684) (mouse) (UniProt Q8K0F1); assay: affinity purification with mass spectrometry; GST-tagged bait (GST-CPD tail, GST-CIMPR tail, GST-TBC1D23 (559 to 684) or GST) on glutathione-Sepharose beads, 2 to 4 h at 4°C with precleared 293T cell lysate (50 mM tris pH 7.4, 150 mM NaCl, 1 mM EDTA, 5 mM 2-mercaptoethanol, 1% Triton X-100), elution with 1.5 M NaCl, MS; only the target …

binding [1]: binds
B1: WDR11 (endogenous, 293T cell lysate) (protein, UniProt Q9BZH6 1-1224)
chain: MLPYTVNFKVSARTLTGALNAHNKAAVDWGWQGLIAYGCHSLVVVIDSITAQTLQVLEKHKADVVKVKWARENYHHNIGSPYCLRLASADVNGKIIVWDVAAGVAQCEIQEHAKPIQDVQWLWNQDASRDLLLAIHPPNYIVLWNADTGTKLWKKSYADNILSFSFDPFDPSHLTLLTSEGIVFISDFSPSKPPSGPGKKVYISSPHSSPAHNKLATATGAKKALNKVKILITQEKPSAEFITLNDCLQLAYLPSKRNHMLLLYPREILILDLEVNQTVGVIAIERTGVPFLQVIPCFQRDGLFCLHENGCITLRVRRSYNNIFTTSNEEPDPDPVQELTYDLRSQCDAIRVTKTVRPFSMVCCPVNENAAALVVSDGRVMIWELKSAVCNRNSRNSSSGVSPLYSPVSFCGIPVGVLQNKLPDLSLDNMIGQSAIAGEEHPRGSILREVHLKFLLTGLLSGLPAPQFAIRMCPPLTTKNIKMYQPLLAVGTSNGSVLVYHLTSGLLHKELSIHSCEVKGIEWTSLTSFLSFATSTPNNMGLVRNELQLVDLPTGRSIAFRGERGNDESAIEMIKVSHLKQYLAVVFRDKPLELWDVRTCTLLREMSKNFPTITALEWSPSHNLKSLRKKQLATREAMARQTVVSDTELSIVESSVISLLQEAESKSELSQNISAREHFVFTDIDGQVYHLTVEGNSVKDSARIPPDGSMGSITCIAWKGDTLVLGDMDGNLNFWDLKGRVSRGIPTHRSWVRKIRFAPGKGNQKLIAMYNDGAEVWDTKEVQMVSSLRSGRNVTFRILDVDWCTSDKVILASDDGCIRVLEMSMKSACFRMDEQELTEPVWCPYLLVPRASLALKAFLLHQPWNGQYSLDISHVDYPENEEIKNLLQEQLNSLSNDIKKLLLDPEFTLLQRCLLVSRLYGDESELHFWTVAAHYLHSLSQEKSASTTAPKEAAPRDKLSNPLDICYDVLCENAYFQKFQLERVNLQEVKRSTYDHTRKCTDQLLLLGQTDRAVQLLLETSADNQHYYCDSLKACLVTTVTSSGPSQSTIKLVATNMIANGKLAEGVQLLCLIDKAADACRYLQTYGEWNRAAWLAKVRLNPEECADVLRRWVDHLCSPQVNQKSKALLVLLSLGCFFSVAETLHSMRYFDRAALFVEACLKYGAFEVTEDTEKLITAIYADYARSLKNLGFKQGAVLFASKAGAAGKDLLNELESPKEEPIEE

binding [2]: binds
B2: golgin-97 (endogenous, 293T cell lysate) (protein, UniProt Q92805 1-767)
chain: MFAKLKKKIAEETAVAQRPGGATRIPRSVSKESVASMGADSGDDFASDGSSSREDLSSQLLRRNEQIRKLEARLSDYAEQVRNLQKIKEKLEIALEKHQDSSMRKFQEQNETFQANRAKMAEGLALALARKDQEWSEKMDQLEKEKNILTAQLQEMKNQSMNLFQRRDEMDELEGFQQQELSKIKHMLLKKEESLGKMEQELEARTRELSRTQEELMNSNQMSSDLSQKLEELQRHYSTLEEQRDHVIASKTGAESKITALEQKEQELQALIQQLSIDLQKVTAETQEKEDVITHLQEKVASLEKRLEQNLSGEEHLQELLKEKTLAEQNLEDTRQQLLAARSSQAKAINTLETRVRELEQTLQASEEQLQQSKGIVAAQETQIQELAAANQESSHVQQQALALEQQFLERTQALEAQIVALERTRAADQTTAEQGMRQLEQENAALKECRNEYERSLQNHQFELKKLKEEWSQREIVSVAMAQALEEVRKQREEFQQQAANLTAIIDEKEQNLREKTEVLLQKEQEILQLERGHNSALLQIHQLQAELEALRTLKAEEAAVVAEQEDLLRLRGPLQAEALSVNESHVTSRAMQDPVFQLPTAGRTPNGEVGAMDLTQLQKEKQDLEQQLLEKNKTIKQMQQRMLELRKTLQKELKIRPDNELFEVREKPGPEMANMAPSVTNNTDLTDAREINFEYLKHVVLKFMSCRESEAFHLIKAVSVLLNFSQEEENMLKETLEYKMSWFGSKPAPKGSIRPSISNPRIPWS

B3: Sec1/Munc18-family protein VPS45 (endogenous, 293T cell lysate) (protein, UniProt Q9NRW7 1-570)
chain: MNVVFAVKQYISKMIEDSGPGMKVLLMDKETTGIVSMVYTQSEILQKEVYLFERIDSQNREIMKHLKAICFLRPTKENVDYIIQELRRPKYTIYFIYFSNVISKSDVKSLAEADEQEVVAEVQEFYGDYIAVNPHLFSLNILGCCQGRNWDPAQLSRTTQGLTALLLSLKKCPMIRYQLSSEAAKRLAECVKQVITKEYELFEFRRTEVPPLLLILDRCDDAITPLLNQWTYQAMVHELLGINNNRIDLSRVPGISKDLREVVLSAENDEFYANNMYLNFAEIGSNIKNLMEDFQKKKPKEQQKLESIADMKAFVENYPQFKKMSGTVSKHVTVVGELSRLVSERNLLEVSEVEQELACQNDHSSALQNIKRLLQNPKVTEFDAARLVMLYALHYERHSSNSLPGLMMDLRNKGVSEKYRKLVSAVVEYGGKRVRGSDLFSPKDAVAITKQFLKGLKGVENVYTQHQPFLHETLDHLIKGRLKENLYPYLGPSTLRDRPQDIIVFVIGGATYEEALTVYNLNRTTPGVRIVLGGTTVHNTKSFLEEVLASGLHSRSKESSQVTSRSASRR
binding [3]: binds

binding [1]: binds
B4: C17orf75 (endogenous, 293T cell lysate) (protein, UniProt Q9HAS0 1-396)
chain: MLPSLQESMDGDEKELESSEEGGSAEERRLEPPSSSHYCLYSYRGSRLAQQRGDSEDGSPSGTNAETPSGDDFSLSLADTNLPSEVEPELRSFIAKRLSRGAVFEGLGNVASVELKIPGYRVGCYYCLFQNEKLLPETVTIDSERNPSEYVVCFLGGSEKGLELFRLELDKYIQGLKNNMNCEARGLESHIKSYLSSWFEDVVCPIQRVVLLFQEKLTFLLHAALSYTPVEVKESDEKTKRDINRFLSVASLQGLIHEGTMTSLCMAMTEEQHKSVVIDCSSSQPQFCNAGSNRFCEDWMQAFLNGAKGGNPFLFRQVLENFKLKAIQDTNNLKRFIRQAEMNHYALFKCYMFLKNCGSGDILLKIVKVEHEEMPEAKNVIAVLEEFMKEALDQSF

No constants are given. Whether binding was seen depends on the method and setting. In cells and extracts the contact can be indirect. A yes stands for co-enrichment or nearness to the bait. Other partners may have been found. For some of these results: Sequences can lack the tags named with a protein. Each block holds one binder with its values, some of them ahead of it.
